From PMC3911973 come the findings set out here.

For this test, the target named is T1, Kaiso (human (endogenous in SPC-A-1 and LTEP-a-2)) (UniProt Q86T24).
T1 sequence: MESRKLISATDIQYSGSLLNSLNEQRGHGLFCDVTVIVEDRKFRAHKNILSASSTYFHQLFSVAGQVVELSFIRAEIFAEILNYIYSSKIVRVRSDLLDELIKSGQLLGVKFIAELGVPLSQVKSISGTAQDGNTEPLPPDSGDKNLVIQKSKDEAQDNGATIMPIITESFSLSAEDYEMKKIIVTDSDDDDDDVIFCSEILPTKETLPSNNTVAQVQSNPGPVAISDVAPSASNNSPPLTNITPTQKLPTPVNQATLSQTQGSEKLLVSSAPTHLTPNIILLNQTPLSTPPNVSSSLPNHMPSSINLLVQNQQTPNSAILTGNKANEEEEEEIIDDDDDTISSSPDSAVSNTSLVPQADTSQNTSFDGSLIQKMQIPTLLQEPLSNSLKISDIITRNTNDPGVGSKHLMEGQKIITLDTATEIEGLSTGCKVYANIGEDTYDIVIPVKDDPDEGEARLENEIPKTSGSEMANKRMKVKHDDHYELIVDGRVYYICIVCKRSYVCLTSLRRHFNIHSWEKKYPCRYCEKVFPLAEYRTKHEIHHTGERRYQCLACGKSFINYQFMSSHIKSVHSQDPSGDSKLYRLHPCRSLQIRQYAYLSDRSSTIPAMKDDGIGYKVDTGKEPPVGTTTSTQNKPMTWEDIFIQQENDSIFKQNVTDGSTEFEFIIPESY
The test can be described thus: co-IP; lysates (IP cell lysis buffer, 1 mM PMSF) of SPC and LTE cells transfected with DDK-MYC tagged p120ctn-1A or -3A; precipitated with anti-Kaiso (Abcam) and Protein A+G agarose, 3 h at 4°C; mouse IgG and PBS as controls; blotted for p120ctn and MYC.

Results are given in words; binding and its absence hold for the method and conditions named. Binding seen in cells or lysates may run through a third protein. Some binding calls cover weakened binding; strength is not graded here. Tags and fused reporters may be left off the sequences shown.

B1: p120ctn isoform 1A, DDK-MYC tagged (protein, UniProt O60716-5 1-933)
chain: MDDSEVESTASILASVKEQEAQFEKLTRALEEERRHVSAQLERVRVSPQDANPLMANGTLTRRHQNGRFVGDADLERQKFSDLKLNGPQDHSHLLYSTIPRMQEPGQIVETYTEEDPEGAMSVVSVETSDDGTTRRTETTVKKVVKTVTTRTVQPVAMGPDGLPVDASSVSNNYIQTLGRDFRKNGNGGPGPYVGQAGTATLPRNFHYPPDGYSRHYEDGYPGGSDNYGSLSRVTRIEERYRPSMEGYRAPSRQDVYGPQPQVRVGGSSVDLHRFHPEPYGLEDDQRSMGYDDLDYGMMSDYGTARRTGTPSDPRRRLRSYEDMIGEEVPSDQYYWAPLAQHERGSLASLDSLRKGGPPPPNWRQPELPEVIAMLGFRLDAVKSNAAAYLQHLCYRNDKVKTDVRKLKGIPVLVGLLDHPKKEVHLGACGALKNISFGRDQDNKIAIKNCDGVPALVRLLRKARDMDLTEVITGTLWNLSSHDSIKMEIVDHALHALTDEVIIPHSGWEREPNEDCKPRHIEWESVLTNTAGCLRNVSSERSEARRKLRECDGLVDALIFIVQAEIGQKDSDSKLVENCVCLLRNLSYQVHREIPQAERYQEAAPNVANNTGPHAASCFGAKKGKGKKPIEDPANDTVDFPKRTSPARGYELLFQPEVVRIYISLLKESKTPAILEASAGAIQNLCAGRWTYGRYIRSALRQEKALSAIADLLTNEHERVVKAASGALRNLAVDARNKELIGKHAIPNLVKNLPGGQQNSSWNFSEDTVISILNTINEVIAENLEAAKKLRETQGIEKLVLINKSGNRSEKEVRAAALVLQTIWGYKELRKPLEKEGWKKSDFQVNLNNASRSQSSHSYDDSTLPLIDRNQKSDKKPDREEIQMSNMGSNTKSLDNNYSTPNERGDHNRTLDRSGDLGDMEPLKGTTPLMQKI
Turning to B1, the binding entry is recorded as “binds”.

B2: p120ctn isoform 3A, DDK-MYC tagged (protein, UniProt O60716-21 1-832)
chain: MQEPGQIVETYTEEDPEGAMSVVSVETSDDGTTRRTETTVKKVVKTVTTRTVQPVAMGPDGLPVDASSVSNNYIQTLGRDFRKNGNGGPGPYVGQAGTATLPRNFHYPPDGYSRHYEDGYPGGSDNYGSLSRVTRIEERYRPSMEGYRAPSRQDVYGPQPQVRVGGSSVDLHRFHPEPYGLEDDQRSMGYDDLDYGMMSDYGTARRTGTPSDPRRRLRSYEDMIGEEVPSDQYYWAPLAQHERGSLASLDSLRKGGPPPPNWRQPELPEVIAMLGFRLDAVKSNAAAYLQHLCYRNDKVKTDVRKLKGIPVLVGLLDHPKKEVHLGACGALKNISFGRDQDNKIAIKNCDGVPALVRLLRKARDMDLTEVITGTLWNLSSHDSIKMEIVDHALHALTDEVIIPHSGWEREPNEDCKPRHIEWESVLTNTAGCLRNVSSERSEARRKLRECDGLVDALIFIVQAEIGQKDSDSKLVENCVCLLRNLSYQVHREIPQAERYQEAAPNVANNTGPHAASCFGAKKGKGKKPIEDPANDTVDFPKRTSPARGYELLFQPEVVRIYISLLKESKTPAILEASAGAIQNLCAGRWTYGRYIRSALRQEKALSAIADLLTNEHERVVKAASGALRNLAVDARNKELIGKHAIPNLVKNLPGGQQNSSWNFSEDTVISILNTINEVIAENLEAAKKLRETQGIEKLVLINKSGNRSEKEVRAAALVLQTIWGYKELRKPLEKEGWKKSDFQVNLNNASRSQSSHSYDDSTLPLIDRNQKSDKKPDREEIQMSNMGSNTKSLDNNYSTPNERGDHNRTLDRSGDLGDMEPLKGTTPLMQKI
B2: the binding entry is recorded as “binds”.
